# Results: the supplement of paper PMC12823440, “Inhibitors supercharge kinase turnover through native proteolytic circuits” (Nature, 2025)
# The chains behind the UniProt entries cited, without tags or fusion partners. Where a name states a change or a piece, a line headed by the entry shows the natural chain unless it says otherwise.
# UniProt Q15208: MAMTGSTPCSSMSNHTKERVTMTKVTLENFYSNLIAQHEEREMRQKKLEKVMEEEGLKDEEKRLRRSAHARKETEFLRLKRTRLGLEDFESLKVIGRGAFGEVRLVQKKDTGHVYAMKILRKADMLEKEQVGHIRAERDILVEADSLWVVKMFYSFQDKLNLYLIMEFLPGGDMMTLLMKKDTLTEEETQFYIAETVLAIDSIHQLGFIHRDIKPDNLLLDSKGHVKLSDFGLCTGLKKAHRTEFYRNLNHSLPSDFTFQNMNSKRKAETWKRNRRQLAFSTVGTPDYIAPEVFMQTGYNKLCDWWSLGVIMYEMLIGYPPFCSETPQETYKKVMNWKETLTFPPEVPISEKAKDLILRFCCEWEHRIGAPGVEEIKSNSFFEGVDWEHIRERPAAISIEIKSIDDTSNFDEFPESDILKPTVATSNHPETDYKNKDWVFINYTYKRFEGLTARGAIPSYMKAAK
# UniProt P42680: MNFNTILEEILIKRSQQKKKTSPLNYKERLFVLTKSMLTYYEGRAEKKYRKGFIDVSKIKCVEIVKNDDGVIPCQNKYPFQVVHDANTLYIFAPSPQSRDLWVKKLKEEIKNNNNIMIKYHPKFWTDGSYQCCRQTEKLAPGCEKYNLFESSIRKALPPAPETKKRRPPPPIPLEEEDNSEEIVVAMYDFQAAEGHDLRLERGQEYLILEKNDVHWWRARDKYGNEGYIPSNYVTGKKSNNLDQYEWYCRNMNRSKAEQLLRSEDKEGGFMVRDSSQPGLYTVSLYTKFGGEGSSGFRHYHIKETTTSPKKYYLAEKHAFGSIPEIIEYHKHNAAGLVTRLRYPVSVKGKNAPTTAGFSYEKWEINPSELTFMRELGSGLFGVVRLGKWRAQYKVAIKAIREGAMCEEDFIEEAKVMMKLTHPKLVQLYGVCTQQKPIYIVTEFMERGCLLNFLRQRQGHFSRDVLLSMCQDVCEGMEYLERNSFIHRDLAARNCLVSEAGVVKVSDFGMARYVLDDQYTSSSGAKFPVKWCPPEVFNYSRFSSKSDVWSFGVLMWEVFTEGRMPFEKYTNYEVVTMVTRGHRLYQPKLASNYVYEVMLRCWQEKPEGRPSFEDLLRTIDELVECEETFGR
# UniProt P29597: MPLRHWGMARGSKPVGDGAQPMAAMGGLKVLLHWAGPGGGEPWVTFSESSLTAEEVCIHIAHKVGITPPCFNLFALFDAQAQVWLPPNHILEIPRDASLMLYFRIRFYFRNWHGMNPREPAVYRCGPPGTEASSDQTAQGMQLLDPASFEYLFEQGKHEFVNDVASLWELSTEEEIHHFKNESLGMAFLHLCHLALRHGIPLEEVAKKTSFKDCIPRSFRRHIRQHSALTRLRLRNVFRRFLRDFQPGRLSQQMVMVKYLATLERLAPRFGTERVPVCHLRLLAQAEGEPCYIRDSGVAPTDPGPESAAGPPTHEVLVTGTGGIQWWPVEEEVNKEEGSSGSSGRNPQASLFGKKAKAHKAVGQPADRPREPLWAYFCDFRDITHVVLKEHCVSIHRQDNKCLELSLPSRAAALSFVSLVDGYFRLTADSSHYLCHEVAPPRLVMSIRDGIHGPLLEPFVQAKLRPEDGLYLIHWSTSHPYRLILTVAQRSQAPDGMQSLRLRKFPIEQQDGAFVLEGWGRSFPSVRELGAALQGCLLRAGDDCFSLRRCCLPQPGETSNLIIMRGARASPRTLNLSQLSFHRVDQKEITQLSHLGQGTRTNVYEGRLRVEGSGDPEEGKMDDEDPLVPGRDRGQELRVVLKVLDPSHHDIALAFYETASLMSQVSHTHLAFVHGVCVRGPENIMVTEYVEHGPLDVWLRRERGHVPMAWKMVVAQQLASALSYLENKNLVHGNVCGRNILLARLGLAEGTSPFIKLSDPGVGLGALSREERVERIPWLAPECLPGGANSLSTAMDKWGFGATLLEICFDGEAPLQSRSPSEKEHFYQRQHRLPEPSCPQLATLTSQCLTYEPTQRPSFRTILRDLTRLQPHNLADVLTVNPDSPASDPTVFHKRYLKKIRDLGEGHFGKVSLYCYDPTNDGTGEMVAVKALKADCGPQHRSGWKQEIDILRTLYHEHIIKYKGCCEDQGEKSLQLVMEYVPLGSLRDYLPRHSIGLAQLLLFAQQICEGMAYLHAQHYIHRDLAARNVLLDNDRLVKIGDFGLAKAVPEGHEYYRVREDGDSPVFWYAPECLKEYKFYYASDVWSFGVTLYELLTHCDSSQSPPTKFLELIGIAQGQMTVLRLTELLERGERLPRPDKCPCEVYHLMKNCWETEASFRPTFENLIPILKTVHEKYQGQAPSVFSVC
# UniProt Q6PHR2: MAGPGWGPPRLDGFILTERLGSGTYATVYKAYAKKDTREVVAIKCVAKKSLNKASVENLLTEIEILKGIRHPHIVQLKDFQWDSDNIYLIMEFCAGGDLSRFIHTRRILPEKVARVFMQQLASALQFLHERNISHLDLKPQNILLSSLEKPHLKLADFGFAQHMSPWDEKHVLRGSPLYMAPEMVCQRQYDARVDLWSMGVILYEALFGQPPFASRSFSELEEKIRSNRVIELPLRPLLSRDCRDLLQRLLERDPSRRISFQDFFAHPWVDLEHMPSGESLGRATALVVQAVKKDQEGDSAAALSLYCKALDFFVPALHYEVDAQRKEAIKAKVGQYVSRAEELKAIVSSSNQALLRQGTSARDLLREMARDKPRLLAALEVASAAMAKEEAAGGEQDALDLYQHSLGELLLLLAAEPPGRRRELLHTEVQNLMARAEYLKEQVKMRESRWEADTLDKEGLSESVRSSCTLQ
# UniProt P07947, whole entry, looked up: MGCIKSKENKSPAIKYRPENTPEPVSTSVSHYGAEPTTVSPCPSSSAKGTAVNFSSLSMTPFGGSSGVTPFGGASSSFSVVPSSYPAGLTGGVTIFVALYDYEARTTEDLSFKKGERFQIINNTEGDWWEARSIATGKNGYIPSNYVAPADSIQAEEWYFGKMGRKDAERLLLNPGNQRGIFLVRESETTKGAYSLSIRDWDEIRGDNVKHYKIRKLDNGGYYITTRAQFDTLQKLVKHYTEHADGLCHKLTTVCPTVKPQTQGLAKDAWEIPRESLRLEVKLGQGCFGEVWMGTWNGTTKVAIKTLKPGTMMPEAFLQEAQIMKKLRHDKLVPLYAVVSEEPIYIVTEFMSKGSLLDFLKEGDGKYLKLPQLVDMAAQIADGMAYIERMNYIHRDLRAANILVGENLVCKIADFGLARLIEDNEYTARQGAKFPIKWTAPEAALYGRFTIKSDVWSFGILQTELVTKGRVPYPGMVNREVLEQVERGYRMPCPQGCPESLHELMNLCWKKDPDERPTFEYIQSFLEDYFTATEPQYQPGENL
# UniProt P43403: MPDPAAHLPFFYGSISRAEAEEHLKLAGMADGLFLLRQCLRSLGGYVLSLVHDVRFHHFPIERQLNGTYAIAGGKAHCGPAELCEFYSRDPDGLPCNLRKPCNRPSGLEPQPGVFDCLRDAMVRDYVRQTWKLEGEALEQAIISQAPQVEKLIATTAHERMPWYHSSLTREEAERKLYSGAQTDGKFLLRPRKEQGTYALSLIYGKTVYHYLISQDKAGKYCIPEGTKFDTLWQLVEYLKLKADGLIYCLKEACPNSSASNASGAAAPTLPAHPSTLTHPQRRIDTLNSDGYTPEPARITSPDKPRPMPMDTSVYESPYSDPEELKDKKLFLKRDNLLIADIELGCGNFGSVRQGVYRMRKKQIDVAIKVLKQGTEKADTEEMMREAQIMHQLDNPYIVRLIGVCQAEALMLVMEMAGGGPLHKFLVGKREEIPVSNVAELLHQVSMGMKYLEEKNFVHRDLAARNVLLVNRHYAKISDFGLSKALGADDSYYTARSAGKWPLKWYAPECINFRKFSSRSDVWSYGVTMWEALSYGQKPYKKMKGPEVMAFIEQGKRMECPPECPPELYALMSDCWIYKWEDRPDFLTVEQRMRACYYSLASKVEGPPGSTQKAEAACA
# UniProt P11802: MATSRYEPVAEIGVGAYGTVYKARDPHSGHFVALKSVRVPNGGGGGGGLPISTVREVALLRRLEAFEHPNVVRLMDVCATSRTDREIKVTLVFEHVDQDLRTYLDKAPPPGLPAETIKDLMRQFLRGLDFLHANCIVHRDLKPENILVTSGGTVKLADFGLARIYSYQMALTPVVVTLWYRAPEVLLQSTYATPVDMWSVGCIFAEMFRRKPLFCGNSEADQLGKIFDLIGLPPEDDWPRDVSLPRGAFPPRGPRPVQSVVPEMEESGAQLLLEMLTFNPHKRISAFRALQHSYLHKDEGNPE
# UniProt P50613: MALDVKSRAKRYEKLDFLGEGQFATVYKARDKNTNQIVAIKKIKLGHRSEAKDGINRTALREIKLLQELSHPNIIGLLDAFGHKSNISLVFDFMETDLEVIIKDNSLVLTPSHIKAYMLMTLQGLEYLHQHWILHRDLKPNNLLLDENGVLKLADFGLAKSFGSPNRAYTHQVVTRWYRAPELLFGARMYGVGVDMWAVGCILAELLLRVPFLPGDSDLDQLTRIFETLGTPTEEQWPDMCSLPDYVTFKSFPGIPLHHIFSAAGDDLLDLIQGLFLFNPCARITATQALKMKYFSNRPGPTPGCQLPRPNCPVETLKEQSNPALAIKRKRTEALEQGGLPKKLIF
# UniProt P50750, whole entry: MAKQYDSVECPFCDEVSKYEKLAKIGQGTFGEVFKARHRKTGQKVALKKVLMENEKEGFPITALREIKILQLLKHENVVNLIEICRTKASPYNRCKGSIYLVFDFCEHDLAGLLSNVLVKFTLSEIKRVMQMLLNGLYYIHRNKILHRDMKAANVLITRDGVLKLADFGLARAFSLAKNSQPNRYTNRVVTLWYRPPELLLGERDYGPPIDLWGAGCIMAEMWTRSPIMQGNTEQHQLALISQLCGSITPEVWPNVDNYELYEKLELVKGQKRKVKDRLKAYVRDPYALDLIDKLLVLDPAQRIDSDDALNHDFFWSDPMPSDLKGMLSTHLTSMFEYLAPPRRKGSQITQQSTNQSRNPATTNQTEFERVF
# Where a name gives a salt, the structure may show the parent alone. The list shows a part of the results. Hit calls seldom repeat between salt and free forms of one compound.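 In K562 cells expressing nanoluciferase-fused kinases, luminescence was recorded at 4 h intervals between 2 and 18 h, normalized as percent of control with DMSO at 100% and a positive control at 0%. A significant (2 sigma) signal drop marks a time point as decreased. The authors' rule for a hit is not shown and takes in more than the number of time points.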
# Legend:
# Conditions in all cases: K562, 2-18 h
# [1] = molecular target: STK38 (UniProt Q15208); assay: kinase-Nluc reporter destabilization hit call (1 = scored as downregulated) (binary); higher = compound decreases kinase abundance
# [2] = molecular target: SYK (UniProt P43405); assay: as above
# [3] = molecular target: TEC (UniProt P42680); assay: as above
# [4] = molecular target: TYK2 (UniProt P29597); assay: as above
# [5] = molecular target: ULK3 (UniProt Q6PHR2); assay: as above
# [6] = molecular target: YES1 (UniProt P07947); assay: as above
# [7] = molecular target: ZAK (UniProt Q9NYL2); assay: as above
# [8] = molecular target: ZAP70 (UniProt P43403); assay: as above
# [9] = molecular target: CDK4 (UniProt P11802); assay: number of time points (of 4; 2 h point missing) at which kinase-Nluc abundance scored as decreased, DMSO-normalised (count); higher = more persistent destabilization
# [10] = molecular target: CDK7 (UniProt P50613); assay: as above
# [11] = molecular target: CDK9 (UniProt P50750); assay: as above
Structure (SMILES),kinase-Nluc reporter destabilization hit call ([1]; 2.5 µM),kinase-Nluc reporter destabilization hit call ([2]; 2.5 µM),kinase-Nluc reporter destabilization hit call ([3]; 2.5 µM),kinase-Nluc reporter destabilization hit call ([4]; 2.5 µM),kinase-Nluc reporter destabilization hit call ([5]; 2.5 µM),kinase-Nluc reporter destabilization hit call ([6]; 2.5 µM),kinase-Nluc reporter destabilization hit call ([7]; 2.5 µM),kinase-Nluc reporter destabilization hit call ([8]; 2.5 µM),number of time points ([9]; 2.5 µM),number of time points ([10]; 2.5 µM),number of time points ([11]; 2.5 µM),kinase-Nluc reporter destabilization hit call ([1]; 10 µM),kinase-Nluc reporter destabilization hit call ([2]; 10 µM),kinase-Nluc reporter destabilization hit call ([3]; 10 µM),kinase-Nluc reporter destabilization hit call ([4]; 10 µM),kinase-Nluc reporter destabilization hit call ([5]; 10 µM),kinase-Nluc reporter destabilization hit call ([6]; 10 µM),kinase-Nluc reporter destabilization hit call ([7]; 10 µM),kinase-Nluc reporter destabilization hit call ([8]; 10 µM),number of time points ([9]; 10 µM),number of time points ([10]; 10 µM),number of time points ([11]; 10 µM)
COc1cc2c(Oc3ccc4[nH]c(C)cc4c3F)ncnc2cc1OCCCN1CCCC1 [Cediranib (maleate)],inactive: 0,inactive: 0,inactive: 0,inactive: 0,inactive: 0,inactive: 0,inactive: 0,inactive: 0,0,0,0,–,–,–,–,–,–,–,–,–,–,–
CCS(=O)(=O)N1CCN(c2ccc(Nc3ncc(C(N)=O)c(NC4CC4)n3)cc2)CC1 [Cerdulatinib (hydrochloride)],–,–,–,–,–,–,–,–,–,–,–,inactive: 0,inactive: 0,inactive: 0,inactive: 0,active: 1,inactive: 0,inactive: 0,inactive: 0,0,4,1
C=CC(=O)Nc1cc(Nc2nccc(-c3cn(C4CC4)c4ccccc34)n2)c(OC)cc1N(C)CCN(C)C [Almonertinib],inactive: 0,inactive: 0,inactive: 0,inactive: 0,inactive: 0,inactive: 0,inactive: 0,inactive: 0,0,0,0,–,–,–,–,–,–,–,–,–,–,–
Cc1nc2ccc(-n3c(-c4nonc4N)nc4cnccc43)cc2[nH]1,–,–,–,–,–,–,–,–,–,–,–,inactive: 0,inactive: 0,inactive: 0,inactive: 0,inactive: 0,inactive: 0,inactive: 0,inactive: 0,0,0,0
Cc1cc(Nc2ncc(Cl)c(Nc3ccccc3S(=O)(=O)C(C)C)n2)c(OC(C)C)cc1C1CCNCC1 [Ceritinib],inactive: 0,inactive: 0,inactive: 0,inactive: 0,inactive: 0,inactive: 0,inactive: 0,inactive: 0,0,0,0,–,–,–,–,–,–,–,–,–,–,–
COc1ccc(S(=O)(=O)Nc2ccccc2CN(C)C/C=C/c2ccc(Cl)cc2)cc1 [KN-92 (hydrochloride)],inactive: 0,inactive: 0,inactive: 0,inactive: 0,inactive: 0,inactive: 0,inactive: 0,inactive: 0,0,0,0,–,–,–,–,–,–,–,–,–,–,–
Nc1cncc(-c2cn3ccnc3c(Nc3ccc(N4CCN(C5COC5)CC4)cc3)n2)n1 [Lanraplenib (succinate)],–,–,–,–,–,–,–,–,–,–,–,inactive: 0,inactive: 0,inactive: 0,inactive: 0,inactive: 0,inactive: 0,inactive: 0,inactive: 0,0,0,0
N#CC[C@H](C1CCCC1)n1cc(-c2ncnc3[nH]ccc23)cn1 [Ruxolitinib],–,–,–,–,–,–,–,–,–,–,–,inactive: 0,inactive: 0,inactive: 0,inactive: 0,inactive: 0,inactive: 0,inactive: 0,inactive: 0,0,0,0
C#Cc1cccc(Nc2ncnc3cc(OCCOC)c(OCCOC)cc23)c1 [Erlotinib (Hydrochloride)],–,–,–,–,–,–,–,–,–,–,–,inactive: 0,inactive: 0,inactive: 0,inactive: 0,inactive: 0,inactive: 0,inactive: 0,inactive: 0,0,0,0
CNc1ncc2cc(-c3ccc(-c4cccc(C)n4)cc3Cl)c(=O)n(C[C@H]3OC[C@H](N)CO3)c2n1 [G-5555 (hydrochloride)],–,–,–,–,–,–,–,–,–,–,–,inactive: 0,inactive: 0,inactive: 0,inactive: 0,inactive: 0,inactive: 0,inactive: 0,inactive: 0,0,1,0
COc1ccc2c(c1)C(c1ccc(F)cc1)=C(CN1CCCC1)CO2 [AX-024 hydrochloride],–,–,–,–,–,–,–,–,–,–,–,inactive: 0,inactive: 0,inactive: 0,inactive: 0,inactive: 0,inactive: 0,inactive: 0,inactive: 0,0,0,0
CN(C)C(=N)NC(=N)N [Metformin (hydrochloride)],–,–,–,–,–,–,–,–,–,–,–,inactive: 0,inactive: 0,inactive: 0,inactive: 0,inactive: 0,inactive: 0,inactive: 0,inactive: 0,0,0,0
C=CC(=O)Nc1cc(Nc2nccc(-c3cn(C)c4ccccc34)n2)c(OC)cc1N(C)CCN(C)C [Osimertinib (dimesylate)],inactive: 0,inactive: 0,inactive: 0,inactive: 0,inactive: 0,inactive: 0,inactive: 0,inactive: 0,0,0,0,–,–,–,–,–,–,–,–,–,–,–

# Full records as entered above. Values in the order: kinase-Nluc reporter destabilization hit call ([1]; 2.5 µM) | kinase-Nluc reporter destabilization hit call ([2]; 2.5 µM) | kinase-Nluc reporter destabilization hit call ([3]; 2.5 µM) | kinase-Nluc reporter destabilization hit call ([4]; 2.5 µM) | kinase-Nluc reporter destabilization hit call ([5]; 2.5 µM) | kinase-Nluc reporter destabilization hit call ([6]; 2.5 µM) | kinase-Nluc reporter destabilization hit call ([7]; 2.5 µM) | kinase-Nluc reporter destabilization hit call ([8]; 2.5 µM) | number of time points ([9]; 2.5 µM) | number of time points ([10]; 2.5 µM) | number of time points ([11]; 2.5 µM) | kinase-Nluc reporter destabilization hit call ([1]; 10 µM) | kinase-Nluc reporter destabilization hit call ([2]; 10 µM) | kinase-Nluc reporter destabilization hit call ([3]; 10 µM) | kinase-Nluc reporter destabilization hit call ([4]; 10 µM) | kinase-Nluc reporter destabilization hit call ([5]; 10 µM) | kinase-Nluc reporter destabilization hit call ([6]; 10 µM) | kinase-Nluc reporter destabilization hit call ([7]; 10 µM) | kinase-Nluc reporter destabilization hit call ([8]; 10 µM) | number of time points ([9]; 10 µM) | number of time points ([10]; 10 µM) | number of time points ([11]; 10 µM)
# `Cc1cc(Nc2ncc(Cl)c(Nc3ccccc3S(=O)(=O)C(C)C)n2)c(OC(C)C)cc1C1CCNCC1` [Ceritinib] is listed as inactive: 0 | inactive: 0 | inactive: 0 | inactive: 0 | inactive: 0 | inactive: 0 | inactive: 0 | inactive: 0 | 0 | 0 | 0 | – | – | – | – | – | – | – | – | – | – | –
# `Nc1cncc(-c2cn3ccnc3c(Nc3ccc(N4CCN(C5COC5)CC4)cc3)n2)n1` [Lanraplenib (succinate)] is listed as – | – | – | – | – | – | – | – | – | – | – | inactive: 0 | inactive: 0 | inactive: 0 | inactive: 0 | inactive: 0 | inactive: 0 | inactive: 0 | inactive: 0 | 0 | 0 | 0
